This is an account of results in article doi:10.64898/2025.12.19.694617.

Amino acid sequences for entries named in this document (tags omitted).
UniProt Q9QYE3: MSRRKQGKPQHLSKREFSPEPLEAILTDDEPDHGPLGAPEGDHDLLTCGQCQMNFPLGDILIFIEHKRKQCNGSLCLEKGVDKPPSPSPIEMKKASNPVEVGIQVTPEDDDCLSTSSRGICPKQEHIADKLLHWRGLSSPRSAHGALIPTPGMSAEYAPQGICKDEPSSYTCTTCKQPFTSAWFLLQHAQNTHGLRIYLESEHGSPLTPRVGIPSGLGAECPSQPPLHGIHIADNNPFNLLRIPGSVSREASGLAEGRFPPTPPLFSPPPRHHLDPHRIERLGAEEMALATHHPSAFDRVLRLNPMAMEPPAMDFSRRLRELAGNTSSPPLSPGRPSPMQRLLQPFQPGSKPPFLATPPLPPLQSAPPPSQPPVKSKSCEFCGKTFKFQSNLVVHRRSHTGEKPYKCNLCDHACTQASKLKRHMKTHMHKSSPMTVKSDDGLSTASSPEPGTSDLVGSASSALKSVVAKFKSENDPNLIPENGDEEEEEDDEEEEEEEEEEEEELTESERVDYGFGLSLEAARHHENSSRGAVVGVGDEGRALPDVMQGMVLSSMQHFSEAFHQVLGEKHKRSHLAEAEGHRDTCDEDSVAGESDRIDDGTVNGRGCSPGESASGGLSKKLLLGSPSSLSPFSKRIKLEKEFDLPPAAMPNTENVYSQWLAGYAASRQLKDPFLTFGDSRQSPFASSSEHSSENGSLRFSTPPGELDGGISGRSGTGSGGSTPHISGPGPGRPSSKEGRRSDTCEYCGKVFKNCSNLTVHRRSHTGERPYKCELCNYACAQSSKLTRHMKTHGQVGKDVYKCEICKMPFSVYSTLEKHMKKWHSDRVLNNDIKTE
UniProt P40201: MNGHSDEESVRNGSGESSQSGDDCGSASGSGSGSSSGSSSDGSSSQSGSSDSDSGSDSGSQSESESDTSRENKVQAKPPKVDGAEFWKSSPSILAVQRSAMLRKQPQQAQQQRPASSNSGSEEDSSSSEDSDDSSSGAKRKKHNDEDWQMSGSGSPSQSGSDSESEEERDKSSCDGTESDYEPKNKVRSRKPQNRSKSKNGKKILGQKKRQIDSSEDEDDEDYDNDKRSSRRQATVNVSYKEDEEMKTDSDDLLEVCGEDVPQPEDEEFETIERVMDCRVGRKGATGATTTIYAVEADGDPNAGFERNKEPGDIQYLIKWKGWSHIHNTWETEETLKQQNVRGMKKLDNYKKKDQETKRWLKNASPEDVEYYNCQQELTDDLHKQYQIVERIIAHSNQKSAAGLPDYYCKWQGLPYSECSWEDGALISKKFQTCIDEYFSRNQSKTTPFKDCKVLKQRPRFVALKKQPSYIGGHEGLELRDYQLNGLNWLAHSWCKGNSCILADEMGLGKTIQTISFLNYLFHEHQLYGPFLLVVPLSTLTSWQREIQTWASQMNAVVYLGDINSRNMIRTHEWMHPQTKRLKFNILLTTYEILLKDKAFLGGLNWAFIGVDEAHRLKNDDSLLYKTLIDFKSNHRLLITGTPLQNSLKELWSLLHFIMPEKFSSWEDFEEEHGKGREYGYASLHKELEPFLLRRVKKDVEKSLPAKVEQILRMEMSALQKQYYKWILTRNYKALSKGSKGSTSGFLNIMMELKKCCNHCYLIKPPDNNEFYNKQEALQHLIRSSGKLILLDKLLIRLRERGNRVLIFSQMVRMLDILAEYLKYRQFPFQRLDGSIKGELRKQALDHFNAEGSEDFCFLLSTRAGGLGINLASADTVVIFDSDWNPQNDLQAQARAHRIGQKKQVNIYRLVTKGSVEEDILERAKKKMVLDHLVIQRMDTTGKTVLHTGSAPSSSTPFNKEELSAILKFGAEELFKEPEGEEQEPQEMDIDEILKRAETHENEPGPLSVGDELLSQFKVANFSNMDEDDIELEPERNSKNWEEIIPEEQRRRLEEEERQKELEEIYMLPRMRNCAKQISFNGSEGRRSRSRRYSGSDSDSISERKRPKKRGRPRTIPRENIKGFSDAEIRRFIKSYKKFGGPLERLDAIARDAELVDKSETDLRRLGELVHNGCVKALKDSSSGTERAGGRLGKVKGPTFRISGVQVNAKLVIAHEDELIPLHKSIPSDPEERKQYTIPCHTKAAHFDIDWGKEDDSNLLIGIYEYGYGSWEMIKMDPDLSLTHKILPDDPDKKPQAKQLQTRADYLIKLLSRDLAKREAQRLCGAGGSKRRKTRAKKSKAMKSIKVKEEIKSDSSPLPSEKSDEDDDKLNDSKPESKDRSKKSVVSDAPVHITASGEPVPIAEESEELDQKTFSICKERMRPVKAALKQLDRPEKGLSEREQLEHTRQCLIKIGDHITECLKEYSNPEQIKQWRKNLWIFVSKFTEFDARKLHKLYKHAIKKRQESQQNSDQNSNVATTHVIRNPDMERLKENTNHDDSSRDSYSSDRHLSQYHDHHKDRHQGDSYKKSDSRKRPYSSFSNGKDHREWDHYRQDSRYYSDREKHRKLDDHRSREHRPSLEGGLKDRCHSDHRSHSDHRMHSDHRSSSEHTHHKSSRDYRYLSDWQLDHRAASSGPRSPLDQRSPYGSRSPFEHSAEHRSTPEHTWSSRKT
UniProt Q8BUN5: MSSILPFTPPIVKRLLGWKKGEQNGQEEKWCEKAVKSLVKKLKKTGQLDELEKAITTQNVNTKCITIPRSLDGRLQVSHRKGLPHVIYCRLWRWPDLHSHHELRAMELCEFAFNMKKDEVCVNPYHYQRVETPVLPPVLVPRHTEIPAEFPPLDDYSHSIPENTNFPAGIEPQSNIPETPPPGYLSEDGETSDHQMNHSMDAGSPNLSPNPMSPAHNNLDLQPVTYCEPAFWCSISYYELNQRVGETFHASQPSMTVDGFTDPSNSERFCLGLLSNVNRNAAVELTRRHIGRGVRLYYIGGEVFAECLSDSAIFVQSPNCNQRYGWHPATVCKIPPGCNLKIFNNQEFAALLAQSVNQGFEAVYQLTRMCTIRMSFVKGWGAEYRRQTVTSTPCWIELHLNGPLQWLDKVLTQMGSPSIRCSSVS
UniProt P97454: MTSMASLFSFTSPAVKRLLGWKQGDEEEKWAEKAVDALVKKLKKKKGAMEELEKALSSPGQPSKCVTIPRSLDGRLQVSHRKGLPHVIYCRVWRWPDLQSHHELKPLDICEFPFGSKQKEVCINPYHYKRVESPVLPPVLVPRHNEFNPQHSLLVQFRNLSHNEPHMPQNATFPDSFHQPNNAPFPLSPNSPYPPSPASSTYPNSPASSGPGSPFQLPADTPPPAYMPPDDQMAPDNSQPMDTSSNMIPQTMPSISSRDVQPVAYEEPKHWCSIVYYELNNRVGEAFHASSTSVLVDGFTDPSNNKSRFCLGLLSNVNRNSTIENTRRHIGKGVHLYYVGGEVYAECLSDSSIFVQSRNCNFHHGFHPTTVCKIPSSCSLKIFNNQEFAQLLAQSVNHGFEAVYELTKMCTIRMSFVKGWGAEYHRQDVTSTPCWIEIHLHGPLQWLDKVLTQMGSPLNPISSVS
UniProt Q62432: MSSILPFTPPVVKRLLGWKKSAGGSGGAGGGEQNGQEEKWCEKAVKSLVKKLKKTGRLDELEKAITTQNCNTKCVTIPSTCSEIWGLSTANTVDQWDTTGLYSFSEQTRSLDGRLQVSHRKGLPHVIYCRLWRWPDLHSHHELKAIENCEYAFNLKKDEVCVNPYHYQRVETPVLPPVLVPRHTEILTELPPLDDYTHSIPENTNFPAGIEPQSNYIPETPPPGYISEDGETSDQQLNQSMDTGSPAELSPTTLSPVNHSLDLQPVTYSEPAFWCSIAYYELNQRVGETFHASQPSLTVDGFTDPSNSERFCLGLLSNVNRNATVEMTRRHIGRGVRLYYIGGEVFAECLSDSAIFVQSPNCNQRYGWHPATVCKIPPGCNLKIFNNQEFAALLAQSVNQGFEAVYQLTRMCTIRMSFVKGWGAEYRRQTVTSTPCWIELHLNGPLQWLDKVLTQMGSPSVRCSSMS

Results are given in words; binding and its absence hold for the method and conditions named. Binding seen in cells or lysates may run through a third protein. Here binding means that the protein was enriched with, or labelled near, the bait; the list need not be complete.

The assay deals with Bcl11a-streptag (mouse) (UniProt Q9QYE3). The assay can be described thus: affinity purification with mass spectrometry.
For Chd1 (from UniProt P40201 1-1711), the binding result was “binds”.

Turning to Smad3 (from UniProt Q8BUN5 1-425), the binding result is reported as “binds”.

Regarding Smad5 (from UniProt P97454 1-465), the binding result is reported as “binds”.

As to Smad2 (from UniProt Q62432 1-467), the binding entry is reported as “binds”.
